Data: PubChem BioAssay AID540275 (National Center for Advancing Translational Sciences (NCATS), 2011)
Screen size: about 320,000 compounds; about 620 (0.19%) were called active. Inconclusive results, whose numbers are uncertain, are shown with a selection of clear calls. Cut-off read from the data, not from the text of the source: active = activation above about 80%; inconclusive = between about 30% and that limit; inactive = weaker than that.

The chains behind the UniProt entries cited, without tags or fusion partners.
UniProt Q8NER1, whole entry, looked up: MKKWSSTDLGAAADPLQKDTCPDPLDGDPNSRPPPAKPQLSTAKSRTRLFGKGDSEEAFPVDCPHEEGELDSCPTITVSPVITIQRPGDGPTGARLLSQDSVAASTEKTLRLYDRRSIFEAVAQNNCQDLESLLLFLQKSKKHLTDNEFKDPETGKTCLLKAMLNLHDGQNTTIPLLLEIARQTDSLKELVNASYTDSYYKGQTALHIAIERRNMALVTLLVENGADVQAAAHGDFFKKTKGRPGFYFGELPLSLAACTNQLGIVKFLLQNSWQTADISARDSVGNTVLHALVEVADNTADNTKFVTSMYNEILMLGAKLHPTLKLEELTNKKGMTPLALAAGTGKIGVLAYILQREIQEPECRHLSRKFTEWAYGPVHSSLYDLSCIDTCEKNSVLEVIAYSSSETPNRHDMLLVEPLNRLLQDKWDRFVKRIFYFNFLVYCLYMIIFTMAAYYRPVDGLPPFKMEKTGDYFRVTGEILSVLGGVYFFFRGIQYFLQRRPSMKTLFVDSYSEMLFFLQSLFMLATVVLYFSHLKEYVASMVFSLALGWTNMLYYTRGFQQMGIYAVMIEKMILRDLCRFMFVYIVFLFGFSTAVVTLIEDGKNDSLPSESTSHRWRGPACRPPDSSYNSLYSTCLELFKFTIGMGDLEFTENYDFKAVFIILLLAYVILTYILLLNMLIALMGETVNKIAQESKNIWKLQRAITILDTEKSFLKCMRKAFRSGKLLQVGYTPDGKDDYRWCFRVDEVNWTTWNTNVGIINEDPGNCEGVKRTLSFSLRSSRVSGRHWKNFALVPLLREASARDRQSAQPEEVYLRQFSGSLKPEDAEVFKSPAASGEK

Biological target: Transient receptor potential cation channel subfamily V member 1 (Homo sapiens) (UniProt Q8NER1)
Experiment: HTS Assay for Compounds that Act as Agonists of the Vanilloid Receptor 1; note: 0% is about no effect
Settings: TRPV1-expressing cells, Fluo-8 calcium influx, agonist mode; at 8.33 µM, hits give high values
Procedure, shortened: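 TRPV1-expressing cells were cultured overnight at 35.5C and loaded with Fluo-8 calcium dye for 40 to 90 min at room temperature. After a 10 s baseline, compound was added and calcium influx was read kinetically for 3 min (ex 480/em 520 nm).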

Row | SMILES | activation
1 | COc1cc(NC(=O)c2cccc3c2C(=O)N(C2CCCCC2)C3)cc(OC)c1OC | inconclusive: 57.6%
2 | COc1ccc(CCNc2nc(N3CCCCC3)nc(N3CCCCC3)n2)cc1OC | inactive: 23.9%
3 | Cc1sc2ncnc(NCC(c3ccco3)N(C)C)c2c1C (configuration not stated) | active: 86%
4 | CC(C)(C=O)C1=CC(=O)c2ccccc2C1=O | inactive: 11%
5 | COCCn1nnnc1C(c1cccc(C(F)(F)F)c1)N1CCN(Cc2ccccc2)CC1 (configuration not stated) | inconclusive: 30.4%
6 | Cc1ccc(NC(=O)c2oc3ccccc3c2NC(=O)C2CC2)cc1 | inconclusive: 77.7%
7 | COc1ccc(CCN(Cc2ccccn2)C(=S)Nc2ccccc2F)cc1OC | inactive: -1.7%
8 | COc1ccc(/C(C)=N/NC(=O)c2cccc(S(=O)(=O)N3CCCC3)c2)c(O)c1 | inconclusive: 39.9%
9 | Cc1c(N/C(=N/S(=O)(=O)c2ccccc2)c2ccc(Cl)cc2)c(=O)n(-c2ccccc2)n1C | inactive: 5.95%
10 | CCCNC(=O)C(=O)NCCC1=CCCCC1 | inconclusive: 31.3%
11 | COc1ccc(Nc2oc(-c3ccco3)nc2S(=O)(=O)c2ccc(F)cc2)cc1 | inconclusive: 35.9%
12 | CC(C)CCN1CCC(C)(NC(=O)c2ccccc2)C1=O (configuration not stated) | inactive: -3.6%
13 | CCOC(=O)C1=C(c2ccccc2)NC(SC)=C(C#N)C1c1ccco1 (configuration not stated) | inconclusive: 38.3%
14 | Cc1ccc(NC(=O)c2ccoc2C)cc1C | inconclusive: 51.6%
15 | COc1ccc2nc3oc(C(=O)NC4CCN(Cc5ccccc5)CC4)cc3cc2c1 | inactive: -0.429%
16 | CCOc1ccccc1CNC(=O)c1cc2oc3ccccc3c2n1C | inactive: 2.69%
17 | COc1ccc(CNC(=O)c2cc(C3CC3)nc3c2cnn3C(C)C)cc1 | inconclusive: 64.2%
18 | CCOc1cccc2cc(C(N)=O)c(=NCc3ccccc3)oc12 | inconclusive: 33.7%
19 | O=C(Nc1ccccc1N1CCCCC1)c1ccc(Cl)cc1 | inconclusive: 45.9%
20 | O=C(O)c1c(NC(=O)N2CCCC2)sc2c1CCCC2 | inconclusive: 45.5%
21 | S=c1[nH]nc(-c2cccs2)n1C1CCCCC1 | inactive: -7.37%
22 | O=C(Nc1ccccc1N1CCCC1)c1cccc(S(=O)(=O)N2CCOCC2)c1 | inconclusive: 31.6%
23 | Cc1cc(C)nc(/N=C(\NC(=O)C(C)(C)C)Nc2ccc(F)cc2)n1 | inconclusive: 45.3%

Row | SMILES | activation
24 | Cc1ccc(CNC(=O)/C=C/c2ccccc2Cl)cc1 | inconclusive: 36.7%
25 | Cc1ccc(-c2cn3c(n2)SCC3)cc1 | inactive: -0.857%
26 | Cc1ccc2cc(C#N)c(N3CCCN(S(=O)(=O)c4ccccc4)CC3)nc2c1 | inactive: 3.91%
27 | C=CCOC(=O)C1=C(C)NC(SCC)=C(C#N)C1c1ccc(Cl)cc1 (configuration not stated) | inconclusive: 34.9%
28 | O=C(O)COc1ccc(C(=O)c2ccccc2)cc1 | inactive: 1.6%
29 | O=S(=O)(c1ccc(-c2csc(-c3cccnc3)n2)cc1)N1CCCCC1 | inactive: 14.5%
30 | N#Cc1sc2nc(C3CC3)cc(-c3ccc(Cl)cc3)c2c1N | inactive: -5.51%
31 | Cc1ccc(SCCC(=O)NC(C)C)cc1 | inconclusive: 31.1%
32 | Cc1nnsc1NC(=O)OCc1ccc(C(C)(C)C)cc1 | inconclusive: 35.8%
33 | Cc1ccc(-n2ncc(C(=O)NC3CC3)c2C2CCN(C(=O)OC(C)(C)C)CC2)c(C)c1 | inconclusive: 52%
34 | CC(C)(C)c1cc(C(=O)N/N=C/c2ccc(F)cc2)n(-c2ccccc2)n1 | inactive: 2.74%
35 | Cc1ccccc1Cn1c(=N)n(CC(O)c2ccco2)c2ccccc21 (configuration not stated) | inactive: 4.61%
36 | COc1ccc(-c2sc3ccc(OC)cc3c2-c2ccc(OC)c(F)c2)cc1 | inactive: 2.14%
37 | COc1cc(CNCCO)ccc1OC1CCCC1 | inactive: 2.11%
38 | COc1cccc(NC(=O)CN2CCN(c3nc(-c4cccc(OC)c4)cs3)CC2)c1 | inconclusive: 60%
39 | O=C(Nc1ccccc1Br)C1CCC(=O)N1Cc1ccccc1Cl (configuration not stated) | inconclusive: 32%
40 | CCN(CC)S(=O)(=O)c1cc(NC(=O)C2=COCCO2)ccc1Cl | inconclusive: 37.6%
41 | CCn1c(=O)c([N+](=O)[O-])c(N2CCN(Cc3ccc4c(c3)OCO4)CC2)c2ccccc21 | inactive: 7.08%
42 | Cc1ccccc1NC(=O)COC(=O)Cc1ccsc1 | inactive: 5.54%
43 | COC(=O)c1ccc(NC(=O)c2cccc(C)c2[N+](=O)[O-])cc1 | inconclusive: 43.7%
44 | CCOc1ccc(NC(=O)Nc2cccn(Cc3ccccc3)c2=O)cc1 | inconclusive: 61.1%
45 | Cc1cccc(-n2cc(-c3ccccc3)c3c(NN4CCOCC4)ncnc32)c1 | inactive: 26%
46 | O=C(c1cccs1)N1CCN(c2cccc(Cl)c2)CC1 | inconclusive: 34.2%

Row | SMILES | activation
47 | CCNC(=O)COc1cc(C)c(Br)c(C)c1 | inconclusive: 38.7%
48 | O=C(Cc1ccccc1)Nc1c(Cl)ccc2nsnc12 | inconclusive: 55.6%
49 | Cc1ccc(C)c(C(=O)CCC(=O)Nc2ccc(F)cc2)c1 | inconclusive: 40.2%
50 | Cc1cc2ccccc2n1CCNC(=O)c1ccc(Br)o1 | inconclusive: 62.4%
51 | Cc1cc(C)c(CN2CCN(Cc3ccc(C)o3)C(CCO)C2)c(-n2cccn2)c1 (configuration not stated) | inactive: 10.8%
52 | Cn1cc(CNCc2cnc3ccccn23)c(-c2ccc(Oc3ccccc3)cc2)n1 | inactive: 0.435%
53 | CSc1cccc(NC(=O)CCCOc2ccc(Cl)cc2Cl)c1 | inconclusive: 32.9%
54 | Cc1cc(C)cc(NC(=O)Nc2cccnc2)c1 | inconclusive: 65.9%
55 | N#CC1=C(c2ccccc2)/C(=C/c2ccccc2)OC1=O | inconclusive: 33.8%
56 | COc1ccc(N2CCN(C(=O)COc3ccccc3)CC2)cc1 | inconclusive: 49.9%
57 | COc1ccc(/C=C2\N=C3CCCCCN3C2=O)cc1 | inconclusive: 45.4%
58 | Cc1ccc(-n2c(=O)[nH]c3c(C(N)=O)nc(CC(C)C)nc32)cc1 | inactive: 7.15%
59 | O=C(CSc1cccc[n+]1[O-])Nc1ccccc1Oc1ccccc1 | inactive: -1.13%
60 | O=C(NC12CC3CC(CC(C3)C1)C2)c1ccc(S(=O)(=O)N2CCOCC2)cc1 | inconclusive: 63.9%
61 | COc1ccc(CNC(=O)c2cc(-c3cc(C)cc(C)c3O)n[nH]2)cc1 | inconclusive: 54.2%
62 | N=c1n(CC(=O)c2ccc([N+](=O)[O-])cc2)c2ccccc2n1Cc1ccccc1 | inactive: 4.43%
63 | Cc1ccccc1OCC(=O)OCC(=O)NCc1ccccc1 | inconclusive: 50.6%
64 | CCC(C)(C)c1ccc(OCC(=O)N(C)C)c(C(C)(C)CC)c1 | active: 81.1%
65 | Cc1ccccc1OCCC(=O)OCC(=O)Nc1c(C)nn(-c2ccccc2)c1C | inconclusive: 47.9%
66 | CCCCCCCCC(=O)NC(NC(=S)N1CCOCC1)C(Cl)(Cl)Cl (configuration not stated) | active: 82.8%
67 | CCOC(=O)c1[nH]c2ccc(OC)cc2c1NC(=O)C(C)N1CCSCC1 (configuration not stated) | inconclusive: 57.9%
68 | CN1CCN(c2ccccc2NC(=O)c2ccc(OCc3ccccc3)cc2)CC1 | inconclusive: 38.8%
69 | COc1ccc(S(=O)(=O)n2cccc2)c(OC)c1 | inactive: 0.688%

Row | SMILES | activation
70 | Cc1ccc(N(C)C(=O)N2CCN(S(=O)(=O)c3ccc(C)cc3)CC2)cc1 | inconclusive: 37.9%
71 | Cc1c(C(=O)N2C[C@@H](C)O[C@@H](C)C2)oc2c(F)cccc12 | inconclusive: 38.1%
72 | O=C(CCc1ccccc1)NCCc1nc2ccccc2[nH]1 | inconclusive: 42.5%
73 | COc1ccc(C(=O)CCNc2ccc(F)cc2)cc1 | inconclusive: 35.9%
74 | CC(=O)NCCc1nc2ccccc2n1Cc1ccccc1 | inconclusive: 63.5%
75 | O=C(Nc1nc(-c2ccccc2)cs1)c1ccco1 | inconclusive: 64.5%
76 | Oc1ccccc1/C=N/Nc1cc(N2CCCC2)nc(N2CCCC2)n1 | inconclusive: 61.9%
77 | Cn1c(C(=O)N2CCCC(Nc3ccc(F)cc3)C2)cc2ccccc21 (configuration not stated) | inconclusive: 48.4%
78 | Cc1ccccc1-c1nc(CN(Cc2c(C)nn(C)c2C)C2CC2)c(C)o1 | inconclusive: 48.6%
79 | O=C(Nc1ccc(O)cc1)c1ccc2c(c1)C(=O)N(Cc1ccccc1)C2=O | inconclusive: 66.4%
80 | O=C(CCCOC(=O)c1ccc(O)cc1O)c1ccc(Br)cc1 | inactive: -0.756%
81 | O=C(CSc1nnc(-c2ccc(Br)o2)n1Cc1ccccc1)c1ccccc1F | inconclusive: 32.2%
82 | CC(C)c1nc2oc3ccccc3c(=O)c2c(=O)n1-c1ccccc1 | inactive: -7.91%
83 | O=C(CCN1C(=O)c2ccccc2C1=O)N1CCN(Cc2ccc(Cl)cc2Cl)CC1 | inconclusive: 39.6%
84 | O=C(CSc1nc2ccccc2c(=O)n1-c1ccc(F)cc1F)Nc1ccc(N2CCOCC2)cc1 | inconclusive: 48.5%
85 | S=C(NCc1ccncc1)Nc1cc(Cl)cc(Cl)c1 | inconclusive: 72.7%
86 | COc1ccc(C(=O)Nc2ccc3c(c2)C(=O)NC3=O)cc1 | inconclusive: 42.8%
87 | O=C(N/N=C/c1ccncc1)c1cc2ccccc2cc1O | inconclusive: 37.9%
88 | CN(CC1CCN(CCc2cccc(C(F)(F)F)c2)CC1)C(=O)c1ccc(F)cc1 | inactive: 1.26%
89 | c1ccc(C[C@H]2CN=C(Nc3ccccc3)N2CCC2CCCC2)cc1 | inactive: -0.716%
90 | CC(C)C[C@@H](CN(C)N=O)N(C[C@H](Cc1ccccc1)N(CCc1ccccc1)N=O)N=O | inactive: 10.8%
91 | Cc1ccc(/C=N/Nc2cc(C)nc(N3CCOCC3)n2)cc1 | inconclusive: 60.4%
92 | CC(C)(C)c1nc(SCC(=O)NC2CCCC2)c2ccccc2n1 | inconclusive: 36.8%

Some of these compounds in order of molar mass, high to low:
Row | SMILES | activation
1 | COc1cc(NC(=O)c2cccc3c2C(=O)N(C2CCCCC2)C3)cc(OC)c1OC | inconclusive: 57.6%
79 | O=C(Nc1ccc(O)cc1)c1ccc2c(c1)C(=O)N(Cc1ccccc1)C2=O | inconclusive: 66.4%
53 | CSc1cccc(NC(=O)CCCOc2ccc(Cl)cc2Cl)c1 | inconclusive: 32.9%
4 | CC(C)(C=O)C1=CC(=O)c2ccccc2C1=O | inactive: 11%

Reformatted with each value named: part of the list above.
CC(C)(C=O)C1=CC(=O)c2ccccc2C1=O
  activation: inactive: 11%
COc1ccc(N2CCN(C(=O)COc3ccccc3)CC2)cc1
  activation: inconclusive: 49.9%
